Assay results taken from PubChem BioAssay AID540256 (National Center for Advancing Translational Sciences (NCATS), 2011).
Out of some 300,000 compounds screened, about 3,700 (1.2%) were called active. The shares of active, inactive and inconclusive entries below differ from those in the screen. Calls follow the shape of the full dose curve; tested in HEK293 cells. Potencies beside an inconclusive call are fits to weak or partial responses and may not hold up.

experiment: qHTS for Inhibitors of binding or entry into cells for Lassa Virus; details: Lassa virus pseudotype entry inhibition, cell reporter; activity change, negative = inhibition: at 37.9 µM (top of the series) unless noted; also: nearly all actives have a fitted effect of over 50% in size
% is scaled to controls: 0 for no effect and ±100 for the full control effect; potency is read from the fitted curve at half-maximal effect.

SMILES | activity change, negative = inhibition | Potency
Cc1ccc(NC(=O)CSc2cc(=O)n(C)c3ccc(Cl)cc23)c(Br)c1 | inactive: 21.2% [at 46.1 µM] | 
Cn1cc(CCCC(=O)NCc2ccccc2)c2ccccc21 |  | inconclusive: 35.5 µM [inhibitor, single point]
O=C(NCCC(c1ccccc1)c1ccccc1)c1ccc(Br)o1 |  | inconclusive: 35.5 µM [inhibitor, single point]
O=C1c2ccccc2C(=O)C1(CO)c1ccccc1 | inactive: 22.8% | 
O=S(=O)(c1cccs1)N1CCN(c2cccc(Cl)c2)CC1 |  | inconclusive: 29.1 µM [inhibitor, single point]
CC1=C(C(=O)OC(C)C)C(c2ccc(C)o2)NC(=O)N1 (configuration not stated) | inactive: 9% | 
COc1ccc2[nH]c(C(=O)N/N=C/c3ccc(OC)c(O)c3)cc2c1 |  | active: 5.62 µM
COc1ccc(CNS(=O)(=O)c2cc3c(cc2C)n(C)c(=O)c(=O)n3C)cc1 |  | inconclusive: 6.31 µM [inhibitor, single point]
O=c1[nH]c(COc2ccc(Cl)cc2Br)nc2ccccc12 |  | inconclusive: 14.1 µM [inhibitor, single point]
Cn1c(N/N=C/c2cc3ccccc3nc2Cl)nc2ccccc21 |  | inconclusive: 6.31 µM [inhibitor, partial curve]
Cc1cc(C)nc(SCc2nnc(SCC(=O)OC3CCCCC3)o2)n1 |  | inconclusive: 29.1 µM [inhibitor, single point]
O=C1/C(=C/c2ccco2)Cc2ccccc21 |  | inconclusive: 35.5 µM [activator, single point]
CCOC(=O)C1CCN(CC(=O)Nc2cc(S(=O)(=O)N3CCCCC3)ccc2Cl)CC1 |  | inconclusive: 0.891 µM [inhibitor, full curve, poor fit]
COc1ccc(Cl)cc1NC(=O)c1cc(-c2ccccc2O)n[nH]1 |  | inconclusive: 2.31 µM [inhibitor, partial curve, poor fit]
CCN(CC(=O)NCc1cccs1)C(=O)CCc1c[nH]c2ccccc12 |  | inconclusive: 11.2 µM [inhibitor, partial curve, poor fit]
Cn1c(C(=O)NCc2cccs2)cc2oc3ccccc3c21 |  | active: 0.501 µM
O=C(CN1CCN(CC(=O)Nc2ccc3c(c2)OC2(CCCCC2)O3)CC1)Nc1cccc(F)c1 |  | inconclusive: 35.5 µM [inhibitor, single point]
COc1ccc(C2CC(c3ccccc3OC(C)=O)=NN2C(=O)/C=C/c2ccccc2)cc1OC (configuration not stated) |  | inconclusive: 9.2 µM [inhibitor, partial curve]
Cn1nc(C(C)(C)C)cc1C(=O)NN1CCOCC1 |  | inconclusive: 10 µM [activator, partial curve, poor fit]
COc1ccc(C2(O)CCN(Cc3nnnn3Cc3ccc(F)cc3)CC2)cc1 | inactive: -15% | 
CCOc1ccc(/C=C2\SC(=S)N(CCC(=O)N(CCO)c3ccccc3)C2=O)cc1 |  | inconclusive: 20 µM [inhibitor, partial curve, poor fit]
N#Cc1ccc(S(=O)(=O)N2CCc3[nH]c4ccc(F)cc4c3C2)cc1 |  | inconclusive: 11.2 µM [inhibitor, single point]
Cc1cnc(CN(C)C(=O)c2cc(COc3c(F)cccc3F)on2)[nH]1 | inactive: -8.11% | 

Quoted from the listing.
For Potency, CCN(CC(=O)NCc1cccs1)C(=O)CCc1c[nH]c2ccccc12 shows inconclusive: 11.2 µM [inhibitor, partial curve, poor fit]
For Potency, COc1ccc(Cl)cc1NC(=O)c1cc(-c2ccccc2O)n[nH]1 shows inconclusive: 2.31 µM [inhibitor, partial curve, poor fit]
For Potency, O=S(=O)(c1cccs1)N1CCN(c2cccc(Cl)c2)CC1 shows inconclusive: 29.1 µM [inhibitor, single point]
For activity change, negative = inhibition, O=C1c2ccccc2C(=O)C1(CO)c1ccccc1 shows inactive: 22.8%

The list continues.

SMILES | activity change, negative = inhibition | Potency
Cc1ccc(CNc2ccc(-c3nc(C(C)C)no3)cc2[N+](=O)[O-])cc1 | inactive: 2.93% [at 46.1 µM] | 
Cc1nn(-c2ccccc2)c(=S)c2ccccc12 |  | inconclusive: 29.1 µM [activator, single point]
O=C(CSc1nnc(CNC(=O)c2c(F)cccc2Cl)o1)NC1CCCC1 |  | inconclusive: 14.1 µM [activator, single point]
CN1CCc2c(sc(/N=C/c3cc(C(C)(C)C)ccc3O)c2C#N)C1 | inactive: 25.1% [at 46.1 µM] | 
COc1cccc2cc(C(=O)N3CCN(C/C=C/c4ccccc4)CC3)c(=O)oc12 |  | inconclusive: 15.8 µM [inhibitor, partial curve, poor fit]
Cc1cc2cc(CCNC(=O)C(C)C)c(=O)[nH]c2cc1C |  | inconclusive: 4.11 µM [inhibitor, partial curve, poor fit]
Cc1ccc(-n2nc(C(=O)N3CCN(c4cccc(C(F)(F)F)c4)CC3)c(=O)n(C)c2=O)cc1 |  | inconclusive: 7.08 µM [inhibitor, full curve, poor fit]
Cc1ccc(NC(=O)c2cnn(-c3ccc(C)c(C)c3)c2C2CCN(C(=O)OC(C)(C)C)CC2)c(C)c1 |  | inconclusive: 3.55 µM [inhibitor, single point]
Cc1cccc(C(C)C)c1NS(=O)(=O)c1cn(C)nc1C | inactive: 27.9% [at 46.1 µM] | 
CCCCN(C)CCNC(=O)c1c(C)oc2ncnc(N3CCOCC3)c12 |  | inconclusive: 35.5 µM [activator, single point]
COc1cc(NCCCCCCCN)c2ncccc2c1 | inactive: -4.15% | 
O=C(CSc1ccccc1)N1CCCC(N2CCN(c3ccc(F)cc3)CC2)C1 (configuration not stated) | inactive: -28.7% [at 46.1 µM] | 
CCCCc1cc(=O)oc2cc(OCc3cc(OC)c(OC)c(OC)c3)c(Cl)cc12 |  | inconclusive: 25.1 µM [inhibitor, single point]
Cc1ccc(O)c(N=NC2=C(O)CC(C)(C)CC2=O)c1 |  | inconclusive: 12.6 µM [inhibitor, partial curve]
NC(=O)c1oc2ccccc2c1NC(=O)c1ccc([N+](=O)[O-])o1 |  | inconclusive: 12.6 µM [inhibitor, single point]
COc1ccc(CCC(C)Nc2ccc(F)c(F)c2)cc1 (configuration not stated) |  | inconclusive: 3.26 µM [inhibitor, full curve, poor fit]
Cc1occc1-c1nnc(SCC(=O)c2ccc(Cl)cc2)n1CC1CCCO1 (configuration not stated) |  | inconclusive: 14.1 µM [activator, single point]
Cc1ccc(C)c(N(CC(=O)NC2CCCC2)C(=O)c2cc3cc4cc(C)ccc4nc3s2)c1 | inactive: -9.15% | 
Cc1[nH]nc2c1C1(CCC(c3ccccc3)CC1)C(C#N)=C(N)O2 (configuration not stated) |  | inconclusive: 1.03 µM [inhibitor, full curve, poor fit]
COc1ccccc1N1CCN(C(=O)C2CCCN(c3ncnc4c3nc3n4CCCCC3)C2)CC1 (configuration not stated) |  | inconclusive: 12.6 µM [inhibitor, partial curve, poor fit]
COc1cccc(C(=O)NCc2ccc(-c3nc4ccccc4s3)cc2)c1 |  | inconclusive: 35.5 µM [inhibitor, single point]
COc1ccc(-c2csc3nc(C)nc(N4CCCCC4)c23)cc1OC |  | inconclusive: 15.8 µM [inhibitor, single point]
Cc1c(NC(=O)Nc2ccc(Cl)c(Cl)c2)sc(=S)n1C |  | inconclusive: 35.5 µM [inhibitor, single point]

SMILES | activity change, negative = inhibition | Potency
CCCCC(=O)Nc1cc(C)c(O)c(-c2nc3ncccc3o2)c1 | inactive: 8.15% [at 46.1 µM] | 
CCn1c2ccccc2c2cc(NS(=O)(=O)c3ccc(C)cc3)ccc21 |  | inconclusive: 35.5 µM [inhibitor, single point]
O=C(C1CCN(S(=O)(=O)c2ccc(Cl)cc2)CC1)N1CCCCCCC1 |  | inconclusive: 7.94 µM [inhibitor, partial curve, poor fit]
CC(=O)N1CCC2(CC1)OC(=O)C(C)=C2C(=O)Nc1cccc(Cl)c1C | inactive: 2.36% [at 46.1 µM] | 
Cc1cccc(C(=O)Nc2cc3c(cc2N2CCCCC2)n(C)c(=O)c(=O)n3C)c1 | inactive: 1.84% [at 46.1 µM] | 
Cc1ccc(-n2c(C)cc(C(=O)CN3CCCCC3)c2C)cc1 |  | inconclusive: 29.1 µM [inhibitor, single point]
C[C@H]1Cc2c(-c3ccccc3)nc3c(c2CO1)CN(S(=O)(=O)c1ccc2c(c1)OCCN2C)CC3 |  | inconclusive: 2.99 µM [inhibitor, partial curve, poor fit]
O=C(C1CC(c2ccccc2O)=NO1)N1CCCCC1 (configuration not stated) | inactive: 2.94% | 
COc1cccc(CNC(=O)C2CCN(C(=O)N3CCOc4ccc(Cl)cc43)CC2)c1OC |  | inconclusive: 7.94 µM [inhibitor, partial curve]
Cc1cc(NCc2ccccn2)n2nc(C)c(-c3ccc(Cl)cc3)c2n1 |  | inconclusive: 35.5 µM [inhibitor, single point]
CSc1oc(-c2ccccc2)nc1S(=O)(=O)c1ccc(F)cc1 |  | inconclusive: 41.1 µM [inhibitor, single point]
CSc1sc(C(=O)N2CCc3ccccc32)cc1S(=O)(=O)C(C)C | inactive: -1.58% | 
Cc1nc(C)c(-c2ccc(SCC(=O)Nc3ccc(Cl)c(Cl)c3)nn2)s1 |  | inconclusive: 11.2 µM [inhibitor, partial curve, poor fit]
COc1ccccc1NC(=O)N1c2ccccc2Sc2ccccc21 |  | inconclusive: 14.1 µM [inhibitor, single point]
CC(C)(C)c1ccc(C(=O)NC(=O)COC(=O)c2ccco2)cc1 | inactive: 4.72% | 
Cc1ccc(C(=O)N(Cc2sccc2C)C2CCS(=O)(=O)C2)cc1 (configuration not stated) |  | inconclusive: 6.31 µM [inhibitor, single point]
Cc1cccc(C)c1NC(=O)c1ccc2c(c1)N(Cc1cccc(Cl)c1)C(=O)c1ccccc1S2=O (configuration not stated) |  | inconclusive: 6.31 µM [inhibitor, single point]
Cc1ccsc1/C=N/NC(=O)c1sccc1C |  | inconclusive: 35.5 µM [inhibitor, single point]
O=C(c1ccc(Cl)nc1)N1CCc2ccccc2C1 | inactive: 17.7% | 
CCOC(=O)c1ccc(NC(=O)Cn2nc(SC)c(S(=O)(=O)c3ccc(Cl)cc3)c2N)cc1 |  | inconclusive: 11.2 µM [inhibitor, partial curve, poor fit]
c1ccc(CN=C(NCc2ccccc2)NCc2ccccc2)cc1 |  | inconclusive: 35.5 µM [inhibitor, single point]
